# Data taken from PMC6199744, “Development of Chemical Proteomics for the Folateome and Analysis of the Kinetoplastid Folateome” (ACS Infectious Diseases, 2018).
# Read-outs that look alike come from different tables or passages of the source. The source gives many values for each of these; only a part stands here.
# Test system: T. brucei lysate proteins
# Type: binding, Trypanosoma brucei
compound,measurement,setting,value
CCCCCCOc1cccc(Cc2cnc(N)nc2N)c1 [compound 2],fold change,"protein TB09.211.4760 METACASPASE 5, PUTATIVE, vehicle control = 1",0.91
same,fold change,"protein TB427TMP.01.1090 HY[…], CONSERVED, vehicle control = 1",1.29
same,fold change,"protein TB427TMP.01.2460 HY[…], CONSERVED, vehicle control = 1",0.89
same,fold change,"protein TB427TMP.01.6180 HY[…], CONSERVED, vehicle control = 1",0.98
same,fold change,"protein TB427TMP.02.0030 DYNEIN HEAVY CHAIN, PUTATIVE, vehicle control = 1",0.93
same,fold change,"protein TB427TMP.02.2410 CLATHRIN COAT ASSEMBLY PROTEIN, PUTATIVE, vehicle control = 1",0.93
same,fold change,"protein TB427TMP.02.4300 HY[…], CONSERVED, vehicle control = 1",0.94
same,fold change,"protein TB427TMP.02.5280 GLYCEROL-3-PHOSPHATE DEHYDROGENASE (FAD-DEPENDENT), MITOCHONDRIAL, vehicle control = 1",1.45
same,fold change,"protein TB427TMP.211.2150 POLYADENYLATE-BINDING PROTEIN 2 (PABP2), PUTATIVE, vehicle control = 1",1.1
same,fold change,"protein TB427TMP.211.4550 60S RIBOSOMAL PROTEIN L12, PUTATIVE, vehicle control = 1",1.4
same,fold change,"protein TB427TMP.211.4810 HY[…], CONSERVED, vehicle control = 1",0.93
same,fold change,"protein TB427TMP.47.0011 HY[…], CONSERVED, vehicle control = 1",0.93
same,fold change,"protein TB427.03.4260 HY[…], CONSERVED, vehicle control = 1",1.1
same,fold change,"protein TB427.04.2060 HY[…], CONSERVED, vehicle control = 1",0.88
same,fold change,"protein TB427.04.2340 HY[…], CONSERVED, vehicle control = 1",0.99
same,fold change,"protein TB427.04.3740 FLAGELLAR […] PROTEIN, vehicle control = 1",0.99
same,fold change,"protein TB427.04.5200 NUCLEOPORIN (NUP54/57), PUTATIVE, vehicle control = 1",1.29
same,fold change,"protein TB427.04.560 DYNEIN HEAVY CHAIN, PUTATIVE, vehicle control = 1",1
same,fold change,"protein TB427.06.3670 PAR[…] COMPONENT, PUTATIVE, vehicle control = 1",0.99
same,fold change,"protein TB427.07.2770 HY[…], CONSERVED, vehicle control = 1",1.1
same,fold change,"protein TB427.07.3160 DYNEIN HEAVY CHAIN, CYTOSOLIC, PUTATIVE, vehicle control = 1",0.91
same,fold change,"protein TB427.08.1420 ACYL-COA DEHYDROGENASE, MIT[…], PUTATIVE, vehicle control = 1",0.91
same,fold change,"protein TB427.08.1950 HY[…], CONSERVED, vehicle control = 1",0.87
same,fold change,"protein TB427.08.4540 HY[…], CONSERVED, vehicle control = 1",0.96
same,fold change,"protein TB427.10.14180 PROTEIN TRANSPORT PROTEIN SEC13, PUTATIVE, vehicle control = 1",0.95
same,fold change,"protein TB427.10.1450 HY[…], CONSERVED, vehicle control = 1",0.82
same,fold change,"protein TB427.10.14860 HY[…], CONSERVED, vehicle control = 1",0.98
same,fold change,"protein TB427.10.14930 HY[…], CONSERVED, vehicle control = 1",0.88
same,fold change,"protein TB427.10.15360 HY[…], CONSERVED, vehicle control = 1",1
same,fold change,"protein TB427.10.4600 HY[…], CONSERVED, vehicle control = 1",0.51
same,fold change,"protein TB927.10.12740 HY[…], CONSERVED,ZINC FINGER PROTEIN FAMILY MEMEBER, PUTATIVE, vehicle control = 1",1.1
same,fold change,"protein TB927.10.14170 AQUAPORIN 9, PUTATIVE, vehicle control = 1",0.94
same,fold change,"protein TB927.10.14820 MIT[…] PROTEIN, PUTATIVE, vehicle control = 1",1.43
same,fold change,"protein TB927.10.6050 CLATHRIN HEAVY CHAIN, vehicle control = 1",0.85
same,fold change,"protein TB927.2.1780 UDP-GLCNAC:PI A1-6 GLCNAC-TRANSFERASE, vehicle control = 1",0.95
same,fold change,"protein TB927.3.5490 FLAGELLAR TRANSPORT PROTEIN, PUTATIVE, vehicle control = 1",1.2
same,fold change,"protein TB927.6.2360 ADENOSINE KINASE, PUTATIVE, vehicle control = 1",0.98
same,fold change,"protein TB927.6.4460 S-ADENOSYLMETHIONINE DECARBOXYLASE, vehicle control = 1",0.91
same,fold change,"protein TB927.7.7040 METHYLTHIOADENOSINE PHOSPHORYLASE, PUTATIVE, vehicle control = 1",0.77
same,fold change,"vs vehicle control, protein HA-UBIQUITIN (CZB00000046.1)",0.79
same,fold change,"vs vehicle control, protein TB09.160.2360 POLY(A) EXPORT PROTEIN, PUTATIVE",0.97
same,fold change,"vs vehicle control, protein TB09.211.0630 ACTIN A",1
same,fold change,"vs vehicle control, protein TB11.01.3180 GUANINE NUCLEOTIDE-BINDING PROTEIN BETA SUBUNIT-LIKE PROTEIN",0.96
same,fold change,"vs vehicle control, protein TB11.01.8740 PROTEIN PHOSPHATASE 4, PUTATIVE",1.1
same,fold change,"vs vehicle control, protein TB427TMP.01.5000 HY[…], CONSERVED",0.97
same,fold change,"vs vehicle control, protein TB427TMP.01.8470 DIHYDROLIPOYL DEHYDROGENASE",0.72
same,fold change,"vs vehicle control, protein TB427TMP.160.2220 HY[…], CONSERVED",1
same,fold change,"vs vehicle control, protein TB427TMP.160.4760 HY[…]",0.89
same,fold change,"vs vehicle control, protein TB427TMP.211.4170 HY[…], CONSERVED",0.94
same,fold change,"vs vehicle control, protein TB427.01.120 RETRO[…] SPOT (RHS) PROTEIN, PUTATIVE",1.1
same,fold change,"vs vehicle control, protein TB427.02.4130 ENOYL-COA HYDRATASE/ENOYL-COA ISOMERASE/3-HYDROXYACYL-COA DEHYDROGENASE, PUTATIVE",1.2
same,fold change,"vs vehicle control, protein TB427.02.5850 SMALL NUCLEAR RIBONUCLEOPROTEIN SMD2",1.2
same,fold change,"vs vehicle control, protein TB427.03.1210 PROTEIN TRANSPORT PROTEIN SEC24",1
same,fold change,"vs vehicle control, protein TB427.03.1790 PYRUVATE DEHYDROGENASE E1 BETA SUBUNIT, PUTATIVE",0.85
same,fold change,"vs vehicle control, protein TB427.04.1660 MIT[…] PROTEIN, PUTATIVE",0.94
same,fold change,"vs vehicle control, protein TB427.04.4300 HY[…], CONSERVED",0.92
same,fold change,"vs vehicle control, protein TB427.06.1500 ALKYL-DIHYDR[…] SYNTHASE",0.99
same,fold change,"vs vehicle control, protein TB427.06.2230 HY[…], CONSERVED",1.1
same,fold change,"vs vehicle control, protein TB427.06.2250 RAC SERINE-THREONINE KINASE, PUTATIVE",0.91
same,fold change,"vs vehicle control, protein TB427.06.3050 ALDEHYDE DEH[…], PUTATIVE",0.99
same,fold change,"vs vehicle control, protein TB427.06.3500 ENDOSOMAL T[…] RME-8, PUTATIVE",0.91
same,fold change,"vs vehicle control, protein TB427.06.4440 HY[…], CONSERVED",0.96
same,fold change,"vs vehicle control, protein TB427.06.4480 VALYL-TRNA SYNTHETASE, PUTATIVE",1.1
same,fold change,"vs vehicle control, protein TB427.07.4570 INOSINE-GUANINE […]",0.96
same,fold change,"vs vehicle control, protein TB427.10.14950 RNA BINDING PROTEIN, PUTATIVE",0.93
same,fold change,"vs vehicle control, protein TB927.10.12700 PYRUVATE DEHYDROGENASE E1 ALPHA SUBUNIT, PUTATIVE",0.84
same,fold change,"vs vehicle control, protein TB927.10.8160 HY[…], CONSERVED",0.88
same,fold change,"vs vehicle control, protein TB927.4.3820 HY[…], CONSERVED",0.99
same,fold change,"vs vehicle control, protein TB927.6.1020 CYSTEINE PEPTIDASE PRECURSOR",1
